In patent US8772200B2, “Nitrogen-containing heterocyclic compound and agricultural fungicide” (Nippon Soda Co., Ltd., priority 2010, dated 2014):
Some of these results come from one statement about several compounds together. For at least one compound, name, drawing or mass did not settle the structure.

system: apple scab bacteria (Venturia inaqualis); assay: Control test of apple scab; type: in vivo; conditions: emulsion, active ingredient 100 ppm, sprayed on apple seedlings before inoculation; held 2 weeks at 20° C.

Compound	protective value
CCOC(=O)C(F)(F)c1c(F)cccc1Oc1cnc2ccccc2c1 [compound 289]	at least 75%
CC1(C)CCc2cccc(Oc3cc4ccccc4nc3Cl)c21 [compound 60]	at least 75%
CC(=O)OCC(=O)c1c(F)cccc1Oc1cnc2c(F)cccc2c1 [compound 384]	at least 75%
C=C(C)c1ccccc1Oc1cc2ccccc2nc1Cl [compound 306]	at least 75%
N#Cc1c(F)cccc1Oc1cnc2c(F)cccc2c1 [compound 321]	at least 75%
CC(=O)NC(C#N)c1c(Cl)cccc1Oc1cnc2c(F)cccc2c1 (centres unmarked) [compound 443]	at least 75%
CCC(C)(C)c1ccccc1Oc1cc2cccc(F)c2[n+]([O-])c1 [compound 61]	at least 75%
CC(C)(O)c1cccc(F)c1Oc1cnc2ccccc2c1 [compound 40]	at least 75%
OC(c1ccccc1)c1c(Cl)cccc1Oc1cnc2c(F)cccc2c1 (centres unmarked) [compound 161]	at least 75%
O=C(c1c(F)cccc1Oc1cnc2c(F)cccc2c1)C(Cl)(Cl)Cl [compound 374]	at least 75%
Cc1nc2c(F)cccc2c(F)c1Oc1cccc(F)c1C(C)O (centres unmarked) [compound 206]	at least 75%
CC(C)(C)c1nc2c(F)cccc2cc1Oc1cccnc1C=O [a-4]	at least 75%
O=C(c1c(F)cccc1Oc1cnc2c(F)cccc2c1)C(Cl)Cl [compound 373]	at least 75%
CC(c1c(F)cccc1Oc1cnc2c(F)cccc2c1)N(C)C (racemic) [compound 207]	at least 75%
CCCCC(C)c1ccccc1Oc1cnc2ccccc2c1 (centres unmarked) [compound 279]	at least 75%
CC(C)c1nc2ccccc2cc1Oc1ccccc1C(C)(C)O [compound 68]	at least 75%
CCCCOC(C)c1ccccc1Oc1cnc2ccccc2c1 (racemic) [compound 135]	at least 75%
C=CC(O)c1ccccc1C(=O)c1cnc2ccccc2c1 (centres unmarked) [compound 334]	at least 75%
CC(C)(O)c1ccc(F)cc1Oc1cnc2ccccc2c1 [compound 41]	at least 75%
CCc1nc2ccccc2cc1Oc1ccccc1C(C)(C)O [compound 46]	at least 75%
COC(C)c1ccccc1Oc1cnc2ccccc2c1 (racemic) [compound 132]	at least 75%
Cc1nc2c(F)cccc2cc1Oc1c(F)ccc(F)c1C(C)(C)O [compound 85]	at least 75%
CCOC(=O)c1ccccc1Oc1cnc2ccccc2c1 [compound 3]	at least 75%

Compound	protective value
CC(C)(O)c1c(F)cccc1Oc1cnc2cccc(F)c2c1 [compound 120]	at least 75%
CC(C)(O)c1c(F)cccc1Oc1cnc2c(c1)COCC2 [b-22]	at least 75%
CCOC(=O)c1c(F)cccc1Cc1cnc2cc(F)ccc2c1 [compound 331]	at least 75%
COC(OC)c1c(F)cccc1Oc1cnc2c(F)cccc2c1 [compound 217]	at least 75%
CC(C)=Cc1c(F)cccc1C(=O)c1cnc2c(F)cccc2c1 [compound 335]	at least 75%
CC(O)c1sccc1Oc1cnc2c(F)cccc2c1 (centres unmarked) [c-5]	at least 75%
COC1CCc2cccc(Oc3cnc4ccccc4c3)c21 (centres unmarked) [compound 131]	at least 75%
CCOc1nc2ccccc2cc1Oc1ccccc1C(C)(C)O [compound 70]	at least 75%
CC(C)c1ccccc1Oc1cnc2ccccc2c1 [compound 276]	at least 75%
C=CC(=O)c1c(Cl)cccc1Oc1cnc2c(F)cccc2c1 [compound 369]	at least 75%
NC(=O)c1c(Br)cccc1Oc1cnc2ccccc2c1 [compound 21]	at least 75%
CC(=O)c1ncccc1Oc1cc2cccc(F)c2nc1C [a-9]	at least 75%
CC(=O)c1c(F)cccc1Oc1cnc2c(c1)CCCC2 [b-6]	at least 75%
CC(C)(O)C(C)(C)c1ccccc1Oc1cnc2c(c1)CCC2 [b-4]	at least 75%
OC1(c2c(F)cccc2Oc2cnc3ccccc3c2)CC1 [compound 300]	at least 75%
CCC(C)(C)c1ccccc1Oc1cnc2ccccc2c1 [compound 17]	at least 75%
O=C(c1c(F)cccc1Oc1cnc2c(F)cccc2c1)C(F)(F)F [compound 390]	at least 75%
CC(O)c1c(F)cccc1Oc1cnc2sccc2c1 (centres unmarked) [b-14]	at least 75%
CC(C)(C)c1ccccc1Cc1cnc2c(F)cccc2c1 [compound 52]	at least 75%
OC(c1c(F)cccc1Oc1cnc2c(F)cccc2c1)C(F)(F)F (centres unmarked) [compound 196]	at least 75%
O=C(c1c(F)cccc1Oc1cnc2ccccc2c1)C(F)(F)F [compound 385]	at least 75%
CC(C)(C(N)=O)c1ccccc1Oc1cnc2c(F)cccc2c1 [compound 273]	at least 75%
CC(C)(O)c1c(F)ccc(F)c1Oc1cnc2c(F)cccc2c1 [compound 84]	at least 75%

Compound	protective value
O=C(c1ccccc1)c1c(Cl)cccc1Oc1cnc2c(F)cccc2c1 [compound 368]	at least 75%
O=Cc1ncccc1Oc1cnc2c(F)cccc2c1 [a-3]	at least 75%
CC(=O)c1c(F)cccc1Oc1c(C)nc2c(F)cccc2c1C [compound 362]	at least 75%
Cc1c(F)cccc1Oc1cnc2ccccc2c1 [compound 283]	at least 75%
CCOC(=O)c1cc(F)ccc1Oc1cnc2ccccc2c1 [compound 6]	at least 75%
CC(C)(C)c1ccccc1Oc1cnc2ccccc2c1 [compound 14]	at least 75%
CC(=O)C(F)(F)c1c(F)cccc1Oc1cnc2c(F)cccc2c1 [compound 294]	at least 75%
CCOC(=O)c1c(F)cccc1Cc1cnc2c(F)cccc2c1 [compound 53]	at least 75%
CC(=O)c1c(F)cccc1Oc1cc2cccc(C)c2nc1C [compound 367]	at least 75%
CCOC(=O)c1c(F)cccc1Oc1cnc2c(F)cccc2c1 [compound 8]	at least 75%
CC(=O)c1c(F)cccc1Oc1cnc2cccc(F)c2c1 [compound 388]	at least 75%
N#CCC(O)c1c(Cl)cccc1Oc1cnc2c(F)cccc2c1 (centres unmarked) [compound 182]	at least 75%
C=C(C)Cc1c(F)cccc1C(=O)c1cnc2ccccc2c1 [compound 347]	at least 75%
N#Cc1c(Cl)cccc1Oc1cnc2ccccc2c1 [compound 65]	at least 75%
CCOC(OCC)c1c(F)cccc1Oc1cnc2c(F)cccc2c1 [compound 218]	at least 75%
CC(=O)c1c(F)cccc1Oc1cc2cccc(Cl)c2nc1C [compound 366]	at least 75%
COC(C)c1c(F)cccc1Oc1cnc2c(c1)CCCC2 (centres unmarked) [b-10]	at least 75%
CC(C)(O)C(C)(C)c1ccccc1Oc1cnc2c(c1)CCCCC2 [b-5]	at least 75%
CC(=O)c1c(F)cccc1Oc1cnc2ccsc2c1 [b-17]	at least 75%
CC(C)=Cc1c(F)cccc1C(=O)c1cnc2sccc2c1 [b-20]	at least 75%
O=C(OCc1ccccc1)c1c(Cl)cccc1Oc1cnc2c(F)cccc2c1 [compound 408]	at least 75%
COC(C)c1c(Oc2cnc3c(F)cccc3c2)cccc1SC (racemic) [compound 211]	at least 75%
CON=C(C)c1ccccc1Oc1cnc2ccccc2c1 [compound 24]	at least 75%

Compound	protective value
CC(O)c1c(Cl)ccc(F)c1Oc1cnc2ccccc2c1 (racemic) [compound 190]	at least 75%
CCCCNCc1c(Cl)cccc1Oc1cnc2c(F)cccc2c1 [compound 224]	at least 75%
CC(=O)C(O)c1c(F)cccc1Oc1cc2cccc(F)c2nc1C (centres unmarked) [compound 280]	at least 75%
NC(=O)c1c(Cl)cccc1Oc1cnc2ccccc2c1 [compound 20]	at least 75%
OCC(F)(F)c1c(F)cccc1Oc1cnc2ccccc2c1 [compound 290]	at least 75%
COC(C)c1c(F)cccc1Oc1cnc2sccc2c1 (centres unmarked) [b-15]	at least 75%
C=CCc1nc2c(F)cccc2cc1Oc1cccc(F)c1C(C)(O)CC=C (centres unmarked) [compound 79]	at least 75%
CC(C)OC(=O)c1c(Cl)cccc1Oc1cnc2c(F)cccc2c1 [compound 407]	at least 75%
CC(=O)c1c(F)cccc1Oc1cnc2c(F)ccc(F)c2c1 [compound 387]	at least 75%
CC(C)(O)c1cccnc1Oc1cnc2ccccc2c1 [compound 45]	at least 75%
CC(c1c(F)cccc1Oc1cnc2c(F)cccc2c1)N1CCCC1 (centres unmarked) [compound 445]	at least 75%
CCOC(=O)c1c(F)cccc1Cc1cnc2ccccc2c1 [compound 330]	at least 75%
CC(=O)c1c(F)cccc1Oc1cc2ccc(F)cc2nc1C [compound 383]	at least 75%
CC(=O)c1c(F)cccc1Oc1cnc2sccc2c1 [b-11]	at least 75%
CC(C)(O)c1c(F)cccc1C(O)c1cnc2c(F)cccc2c1 (racemic) [compound 350]	at least 75%
CCOC(=O)c1c(F)cccc1Oc1cnc2ccccc2c1 [compound 7]	at least 75%
CC(O[Si](C)(C)C)(c1ccccc1Oc1cnc2ccccc2c1)C(F)(F)F (centres unmarked) [compound 28]	at least 75%
CC(C)(C)ON=Cc1c(F)cccc1Oc1cnc2ccccc2c1 [compound 320]	at least 75%
CC(C)C(O)c1c(C(F)(F)F)nn(C)c1Oc1cnc2c(F)cccc2c1 (stereo not drawn) [d-6]	at least 75%
CC(C)(C)C(O)c1ccccc1Oc1cnc2ccccc2c1 (racemic) [compound 136]	at least 75%
